Results published in the supplement of paper PMC10849652.
Some of the results follow.

Sequences of proteins named here, by UniProt entry; tags and fusion partners are left off. A change or cut given only in a name is not applied to a line headed by its entry.
UniProt Q96CB8, whole entry, looked up: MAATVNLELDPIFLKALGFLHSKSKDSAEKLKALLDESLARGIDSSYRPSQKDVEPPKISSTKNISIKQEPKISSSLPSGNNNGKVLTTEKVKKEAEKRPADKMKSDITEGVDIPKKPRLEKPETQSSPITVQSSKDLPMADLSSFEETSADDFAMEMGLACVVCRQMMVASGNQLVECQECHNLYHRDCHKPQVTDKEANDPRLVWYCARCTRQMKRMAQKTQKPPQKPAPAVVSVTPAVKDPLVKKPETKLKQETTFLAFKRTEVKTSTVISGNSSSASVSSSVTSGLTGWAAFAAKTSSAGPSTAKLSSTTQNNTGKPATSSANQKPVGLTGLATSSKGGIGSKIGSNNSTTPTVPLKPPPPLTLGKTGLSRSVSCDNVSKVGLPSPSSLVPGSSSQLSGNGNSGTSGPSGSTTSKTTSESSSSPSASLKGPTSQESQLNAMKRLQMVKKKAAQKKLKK
UniProt P15260: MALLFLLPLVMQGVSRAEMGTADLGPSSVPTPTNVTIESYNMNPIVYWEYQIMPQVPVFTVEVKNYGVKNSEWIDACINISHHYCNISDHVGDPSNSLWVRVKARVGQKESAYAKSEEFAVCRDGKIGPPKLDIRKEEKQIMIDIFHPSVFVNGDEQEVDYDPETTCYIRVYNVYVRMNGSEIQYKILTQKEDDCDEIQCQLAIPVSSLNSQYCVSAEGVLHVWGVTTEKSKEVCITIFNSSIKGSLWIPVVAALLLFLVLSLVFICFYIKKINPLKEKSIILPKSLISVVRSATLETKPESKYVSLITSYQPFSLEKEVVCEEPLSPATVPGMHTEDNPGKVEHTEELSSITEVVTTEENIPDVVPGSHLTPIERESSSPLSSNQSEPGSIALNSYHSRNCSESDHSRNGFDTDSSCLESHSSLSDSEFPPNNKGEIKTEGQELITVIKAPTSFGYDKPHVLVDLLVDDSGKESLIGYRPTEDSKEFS
UniProt P01344, whole entry, looked up: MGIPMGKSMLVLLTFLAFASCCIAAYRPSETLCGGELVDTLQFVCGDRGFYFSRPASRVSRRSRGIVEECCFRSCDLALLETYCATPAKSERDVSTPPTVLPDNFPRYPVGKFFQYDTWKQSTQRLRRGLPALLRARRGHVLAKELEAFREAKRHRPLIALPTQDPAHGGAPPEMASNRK
UniProt P23677, whole entry, looked up: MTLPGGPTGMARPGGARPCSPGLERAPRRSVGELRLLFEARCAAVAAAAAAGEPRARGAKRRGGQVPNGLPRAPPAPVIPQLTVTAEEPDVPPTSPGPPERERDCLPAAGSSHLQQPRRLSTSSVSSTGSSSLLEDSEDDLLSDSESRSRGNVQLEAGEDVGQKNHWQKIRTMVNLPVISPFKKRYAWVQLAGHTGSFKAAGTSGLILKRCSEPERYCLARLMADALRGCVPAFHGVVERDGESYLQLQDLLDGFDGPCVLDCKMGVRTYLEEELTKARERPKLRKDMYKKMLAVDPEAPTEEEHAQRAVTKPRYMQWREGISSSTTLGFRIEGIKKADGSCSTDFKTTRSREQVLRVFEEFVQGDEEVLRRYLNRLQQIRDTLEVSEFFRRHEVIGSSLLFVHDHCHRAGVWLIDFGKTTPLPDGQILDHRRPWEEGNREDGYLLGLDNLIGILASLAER
UniProt Q969P0: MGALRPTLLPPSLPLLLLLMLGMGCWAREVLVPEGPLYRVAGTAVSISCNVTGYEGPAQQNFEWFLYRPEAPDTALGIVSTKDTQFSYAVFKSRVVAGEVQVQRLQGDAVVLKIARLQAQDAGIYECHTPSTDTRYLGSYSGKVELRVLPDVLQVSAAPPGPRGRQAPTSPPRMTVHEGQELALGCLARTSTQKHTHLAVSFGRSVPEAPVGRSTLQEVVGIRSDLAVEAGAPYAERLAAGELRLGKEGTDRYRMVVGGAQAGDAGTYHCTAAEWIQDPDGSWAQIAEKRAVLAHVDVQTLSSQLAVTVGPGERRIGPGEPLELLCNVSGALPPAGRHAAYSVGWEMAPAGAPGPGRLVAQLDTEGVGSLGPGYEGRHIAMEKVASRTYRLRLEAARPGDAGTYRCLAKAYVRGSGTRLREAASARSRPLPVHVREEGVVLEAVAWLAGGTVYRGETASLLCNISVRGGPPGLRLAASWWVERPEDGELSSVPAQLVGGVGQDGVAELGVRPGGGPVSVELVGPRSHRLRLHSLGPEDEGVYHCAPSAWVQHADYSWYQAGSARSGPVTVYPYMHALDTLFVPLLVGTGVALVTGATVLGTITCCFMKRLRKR
UniProt Q08334: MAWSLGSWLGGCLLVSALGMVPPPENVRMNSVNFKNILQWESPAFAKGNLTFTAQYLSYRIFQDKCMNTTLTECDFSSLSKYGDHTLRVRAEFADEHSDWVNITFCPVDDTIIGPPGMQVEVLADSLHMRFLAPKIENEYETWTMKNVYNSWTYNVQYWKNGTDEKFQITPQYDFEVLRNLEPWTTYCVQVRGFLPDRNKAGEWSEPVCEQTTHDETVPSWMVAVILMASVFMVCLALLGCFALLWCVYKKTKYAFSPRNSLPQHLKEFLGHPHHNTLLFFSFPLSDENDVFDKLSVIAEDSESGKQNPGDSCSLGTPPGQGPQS
UniProt Q92551: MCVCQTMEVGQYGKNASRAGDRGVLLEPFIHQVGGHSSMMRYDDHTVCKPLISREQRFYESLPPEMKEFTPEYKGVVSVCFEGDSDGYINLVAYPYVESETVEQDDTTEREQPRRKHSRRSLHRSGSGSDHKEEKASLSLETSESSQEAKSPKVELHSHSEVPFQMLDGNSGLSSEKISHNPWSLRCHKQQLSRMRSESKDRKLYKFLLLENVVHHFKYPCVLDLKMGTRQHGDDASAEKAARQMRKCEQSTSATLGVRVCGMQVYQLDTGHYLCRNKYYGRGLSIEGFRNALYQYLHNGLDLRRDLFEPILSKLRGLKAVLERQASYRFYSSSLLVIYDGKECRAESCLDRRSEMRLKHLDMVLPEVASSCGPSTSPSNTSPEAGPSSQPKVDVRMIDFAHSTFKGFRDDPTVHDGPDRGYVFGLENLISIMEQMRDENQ
UniProt Q12906, whole entry, looked up: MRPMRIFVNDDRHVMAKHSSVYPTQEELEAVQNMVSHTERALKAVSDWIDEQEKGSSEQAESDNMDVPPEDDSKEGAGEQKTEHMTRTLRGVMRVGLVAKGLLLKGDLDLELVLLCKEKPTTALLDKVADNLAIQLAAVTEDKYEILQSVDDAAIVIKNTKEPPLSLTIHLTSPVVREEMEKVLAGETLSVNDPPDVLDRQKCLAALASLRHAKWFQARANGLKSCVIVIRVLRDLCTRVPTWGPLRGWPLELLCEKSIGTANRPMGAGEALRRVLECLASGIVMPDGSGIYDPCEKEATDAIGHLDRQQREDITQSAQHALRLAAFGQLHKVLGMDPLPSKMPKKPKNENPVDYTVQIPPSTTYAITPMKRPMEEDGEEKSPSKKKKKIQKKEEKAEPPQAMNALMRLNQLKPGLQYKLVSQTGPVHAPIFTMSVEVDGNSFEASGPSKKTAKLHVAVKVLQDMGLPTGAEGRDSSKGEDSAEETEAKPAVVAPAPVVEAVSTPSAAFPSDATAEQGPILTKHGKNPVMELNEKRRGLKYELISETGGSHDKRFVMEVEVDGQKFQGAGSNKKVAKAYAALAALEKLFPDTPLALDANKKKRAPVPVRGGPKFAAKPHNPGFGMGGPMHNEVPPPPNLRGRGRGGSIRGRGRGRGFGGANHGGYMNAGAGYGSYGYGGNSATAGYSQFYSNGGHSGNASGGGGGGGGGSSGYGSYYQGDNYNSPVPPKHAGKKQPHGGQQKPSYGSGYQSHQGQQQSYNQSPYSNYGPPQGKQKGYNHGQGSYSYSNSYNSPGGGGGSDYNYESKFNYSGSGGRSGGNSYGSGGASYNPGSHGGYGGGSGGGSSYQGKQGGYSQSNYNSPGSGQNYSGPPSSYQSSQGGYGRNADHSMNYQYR
UniProt O14713: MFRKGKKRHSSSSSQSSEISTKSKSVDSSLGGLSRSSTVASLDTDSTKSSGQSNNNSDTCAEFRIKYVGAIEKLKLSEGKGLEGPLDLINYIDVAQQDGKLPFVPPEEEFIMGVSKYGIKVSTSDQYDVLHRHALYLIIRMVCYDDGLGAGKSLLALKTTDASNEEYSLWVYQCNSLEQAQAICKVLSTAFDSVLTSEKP
UniProt Q13478: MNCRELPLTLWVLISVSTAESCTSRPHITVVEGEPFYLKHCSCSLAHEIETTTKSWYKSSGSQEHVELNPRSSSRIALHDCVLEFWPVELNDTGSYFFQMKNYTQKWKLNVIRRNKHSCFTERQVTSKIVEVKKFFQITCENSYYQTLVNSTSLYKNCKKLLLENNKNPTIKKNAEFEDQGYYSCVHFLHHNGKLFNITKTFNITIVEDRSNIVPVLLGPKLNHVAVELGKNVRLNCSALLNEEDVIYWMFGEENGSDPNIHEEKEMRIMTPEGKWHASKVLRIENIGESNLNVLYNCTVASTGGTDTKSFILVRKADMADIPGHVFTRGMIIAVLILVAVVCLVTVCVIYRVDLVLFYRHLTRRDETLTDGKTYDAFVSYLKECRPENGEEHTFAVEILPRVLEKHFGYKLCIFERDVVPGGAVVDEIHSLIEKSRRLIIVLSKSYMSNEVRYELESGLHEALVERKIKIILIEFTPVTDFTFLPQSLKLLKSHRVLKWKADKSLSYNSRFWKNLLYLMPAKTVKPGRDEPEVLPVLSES
UniProt P14316: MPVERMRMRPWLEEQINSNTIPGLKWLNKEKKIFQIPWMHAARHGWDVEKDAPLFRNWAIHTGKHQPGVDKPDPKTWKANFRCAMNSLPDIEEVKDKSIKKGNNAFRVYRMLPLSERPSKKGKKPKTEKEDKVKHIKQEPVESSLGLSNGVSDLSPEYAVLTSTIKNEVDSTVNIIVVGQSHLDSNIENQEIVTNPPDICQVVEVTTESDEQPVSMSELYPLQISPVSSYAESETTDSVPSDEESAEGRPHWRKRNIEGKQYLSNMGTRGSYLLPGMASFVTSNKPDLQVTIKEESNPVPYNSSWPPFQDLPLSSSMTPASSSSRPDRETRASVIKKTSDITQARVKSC
UniProt Q9NPH3, whole entry, looked up: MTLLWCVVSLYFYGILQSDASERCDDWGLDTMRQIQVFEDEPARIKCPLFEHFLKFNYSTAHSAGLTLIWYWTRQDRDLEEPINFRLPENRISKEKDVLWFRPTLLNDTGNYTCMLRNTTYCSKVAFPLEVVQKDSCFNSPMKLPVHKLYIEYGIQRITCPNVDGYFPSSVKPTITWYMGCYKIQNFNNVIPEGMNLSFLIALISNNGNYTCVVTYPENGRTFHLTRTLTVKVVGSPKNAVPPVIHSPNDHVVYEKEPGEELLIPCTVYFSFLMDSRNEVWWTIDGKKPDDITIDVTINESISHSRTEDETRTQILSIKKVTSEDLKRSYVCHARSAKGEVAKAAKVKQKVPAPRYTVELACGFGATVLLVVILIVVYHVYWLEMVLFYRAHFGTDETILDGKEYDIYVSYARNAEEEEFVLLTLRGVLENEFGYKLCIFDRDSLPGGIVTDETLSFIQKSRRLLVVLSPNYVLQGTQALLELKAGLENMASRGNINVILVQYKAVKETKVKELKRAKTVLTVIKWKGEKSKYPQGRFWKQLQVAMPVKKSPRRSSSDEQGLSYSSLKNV

Legend:
Assay in all cases: log2 fold change, soluble protein after heating vs DMSO (PISA); higher = thermal stabilisation; K562 cells, 10 uM, 30 min; active = over 0.2 and 3.5 SD of the protein, either way, in both replicates (recomputed)
saracatinib = compound: CN1CCN(CCOc2cc(OC3CCOCC3)c3c(Nc4c(Cl)ccc5c4OCO5)ncnc3c2)CC1 [saracatinib]
Summary of the method: (§1)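 For each measurement, 10 μM compound was applied for 30 min to K562 cells at 2×10^6 cells/mL. Aliquots were heated for 3 min across 48°C-58°C, pooled, and extracted in PBS with 0.5% NP-40 at 4°C; the supernatant after 21,000xg for 90 min was soluble protein. This was quantified by TMTpro 16plex LC-MS/MS with channel sums equalised, and thermal stability was reported relative to control samples from duplicates, on a log2 fold-change scale.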

sotrastaurin = compound: CN1CCN(c2nc(C3=C(c4c[nH]c5ccccc45)C(=O)NC3=O)c3ccccc3n2)CC1 [sotrastaurin]
Summary of the method: as §1

[1] = compound: CNC(=O)C1=CC=CC=C1NC2=NC(=NC=C2Cl)NC3=C(C=C(C=C3)N4CCOCC4)OC
Summary of the method: as §1

defactinib = compound: CNC(=O)c1ccc(Nc2ncc(C(F)(F)F)c(NCc3nccnc3N(C)S(C)(=O)=O)n2)cc1 [defactinib]
Summary of the method: as §1

[2] = compound: CNc1nc(-c2ccc3c(N)n[nH]c3c2)cc(N2C[C@@H](C(=O)NC3CCCCC3)CC[C@H]2C)n1
Summary of the method: as §1

[3] = compound: COC(=O)[C@H](CCSC)NC(=O)C1=C(C=C(C=C1)NC[C@H](CS)N)C2=CC=CC=C2
Summary of the method: as §1

filanesib = compound: CON(C)C(=O)N1N=C(c2cc(F)ccc2F)S[C@@]1(CCCN)c1ccccc1 [filanesib]
Summary of the method: as §1

zotarolimus = compound: CO[C@H]1C[C@@H]2CC[C@@H](C)[C@@](O)(O2)C(=O)C(=O)N2CCCC[C@H]2C(=O)O[C@H]([C@H](C)C[C@@H]2CC[C@H](n3cnnn3)[C@H](OC)C2)CC(=O)[C@H](C)/C=C(\C)[C@@H](O)[C@@H](OC)C(=O)[C@H](C)C[C@H](C)/C=C/C=C/C=C/1C [zotarolimus]
Summary of the method: as §1

idasanutlin = compound: COc1cc(C(=O)O)ccc1NC(=O)[C@@H]1N[C@@H](CC(C)(C)C)[C@](C#N)(c2ccc(Cl)cc2F)[C@H]1c1cccc(Cl)c1F [idasanutlin]
Summary of the method: as §1

[4] = compound: COc1cc2nc(-c3cc(F)ccc3O)nc(N[C@@H]3CNC[C@H]3C(C)(C)O)c2cc1OC
Summary of the method: as §1

gefitinib = compound: COc1cc2ncnc(Nc3ccc(F)c(Cl)c3)c2cc1OCCCN1CCOCC1 [gefitinib]
Summary of the method: as §1

lapatinib = compound: CS(=O)(=O)CCNCc1ccc(-c2ccc3ncnc(Nc4ccc(OCc5cccc(F)c5)c(Cl)c4)c3c2)o1 [lapatinib]
Summary of the method: as §1

pictilisib = compound: CS(=O)(=O)N1CCN(Cc2cc3nc(-c4cccc5[nH]ncc45)nc(N4CCOCC4)c3s2)CC1 [pictilisib]
Summary of the method: as §1

alvocidib = compound: CN1CC[C@H](c2c(O)cc(O)c3c(=O)cc(-c4ccccc4Cl)oc23)[C@H](O)C1 [alvocidib]
Summary of the method: as §1

Tubastatin A = compound: CN1CCc2c(c3ccccc3n2Cc2ccc(C(=O)NO)cc2)C1 [Tubastatin A]
Summary of the method: as §1

[5] = compound: COC1=CC=C(C=C1)CN2C=CC3=C2C=C(C=C3)C(=O)NO
Summary of the method: as §1

rucaparib = compound: CNCc1ccc(-c2[nH]c3cc(F)cc4c3c2CCNC4=O)cc1 [rucaparib]
Summary of the method: as §1

encorafenib = compound: COC(=O)N[C@@H](C)CNc1nccc(-c2cn(C(C)C)nc2-c2cc(Cl)cc(NS(C)(=O)=O)c2F)n1 [encorafenib]
Summary of the method: as §1

alisertib = compound: COc1cc(Nc2ncc3c(n2)-c2ccc(Cl)cc2C(c2c(F)cccc2OC)=NC3)ccc1C(=O)O [alisertib]
Summary of the method: as §1

[6] = compound: COc1cccc2cc(-c3nc([C@H]4CC[C@H](C(=O)O)CC4)n4ncnc(N)c34)[nH]c12
Summary of the method: as §1

Row | Target | log2 fold change (saracatinib) | log2 fold change (sotrastaurin) | log2 fold change [1] | log2 fold change (defactinib) | log2 fold change [2] | log2 fold change [3] | log2 fold change (filanesib) | log2 fold change (zotarolimus) | log2 fold change (idasanutlin) | log2 fold change [4] | log2 fold change (gefitinib) | log2 fold change (lapatinib) | log2 fold change (pictilisib) | log2 fold change (alvocidib) | log2 fold change (Tubastatin A) | log2 fold change [5] | log2 fold change (rucaparib) | log2 fold change (encorafenib) | log2 fold change (alisertib) | log2 fold change [6]
1 | ITM2C (UniProt Q9NQX7) | inactive: -0.007 | inactive: -0.072 | inactive: 0 | inactive: 0.039 | inactive: -0.003 | inactive: -0.045 | inactive: -0.275 | inactive: -0.047 | inactive: -0.061 | inactive: -0.12 | inactive: -0.092 | inactive: -0.045 | inactive: -0.149 |  |  |  |  |  |  | 
2 | INTS12 (UniProt Q96CB8) | inactive: -0.101 |  |  | inactive: -0.224 | inactive: -0.035 | inactive: 0.005 |  | inactive: -0.113 |  |  |  |  |  | inactive: 0.021 | inactive: 0.149 |  |  |  |  | 
3 | ITGA2B (UniProt P08514) | inactive: 0.025 | inactive: -0.03 | inactive: 0.037 | inactive: 0.059 | inactive: -0.036 | inactive: 0.058 | inactive: 0.086 | inactive: -0.065 | inactive: 0.138 | inactive: 0.074 | inactive: -0.086 | inactive: 0.033 | active: -0.589 |  | inactive: -0.043 | inactive: 0.004 |  |  |  | 
4 | IFNGR1 (UniProt P15260) | inactive: 0.05 | inactive: -0.038 | inactive: -0.215 | inactive: 0.051 | inactive: -0.009 | inactive: 0.088 | inactive: 0.091 | inactive: -0.067 | inactive: 0.105 | inactive: 0.207 | inactive: 0.097 | inactive: -0.058 | inactive: -0.085 |  | inactive: 0.11 |  | inactive: 0.056 | inactive: -0.026 | inactive: -0.09 | inactive: 0.143
5 | IGF2 isoform 3 (UniProt P01344) | inactive: 0.148 |  | inactive: -0.033 | inactive: 0.007 | inactive: -0.105 | inactive: 0.006 |  |  |  |  |  |  |  |  |  | inactive: 0.041 |  |  |  | 
6 | IQSEC2 (UniProt Q5JU85) | inactive: -0.516 |  |  |  | inactive: 0.012 |  |  | inactive: -0.081 |  | inactive: -0.202 | inactive: 0.109 | inactive: -0.12 |  | inactive: 0 |  |  | inactive: 0.111 | inactive: -0.102 | inactive: -0.062 | inactive: -0.137
7 | IKZF1 (UniProt R9R4D9) | inactive: 0.019 |  |  |  | inactive: -0.038 |  |  | inactive: -0.192 |  | inactive: 0.084 |  | inactive: 0.037 | inactive: 0.059 |  | inactive: -0.158 | inactive: -0.167 |  |  |  | 
8 | IPO9 (UniProt Q96P70) | inactive: 0.036 | inactive: -0.13 | inactive: 0.034 | inactive: -0.106 | inactive: -0.136 | inactive: 0 | inactive: -0.005 | inactive: 0.052 | inactive: -0.089 | inactive: -0.054 | inactive: 0.088 | inactive: 0.011 | inactive: 0.031 |  | inactive: -0.02 | inactive: 0.014 | inactive: -0.051 | inactive: 0.056 | inactive: -0.016 | inactive: 0.065
9 | ITPKA (UniProt P23677) | inactive: -0.093 | inactive: -0.024 | inactive: -0.534 | inactive: -0.027 | inactive: 0.012 | inactive: -0.161 | inactive: -0.181 |  | inactive: -0.235 | inactive: 0.119 | inactive: 0.001 | inactive: -0.201 | inactive: -0.169 |  | inactive: 0.081 | inactive: -0.312 | inactive: 0.196 | inactive: -0.066 | inactive: -0.247 | inactive: -0.061
10 | IGSF8 (UniProt Q969P0) | inactive: -0.006 |  | inactive: 0.02 | inactive: -0.01 | inactive: 0.128 | inactive: 0.021 |  | inactive: 0.015 | inactive: 0.067 | inactive: 0.045 |  | inactive: 0.035 | inactive: 0.087 | inactive: 0.053 | inactive: 0.18 | inactive: -0.027 | inactive: 0 | inactive: -0.053 | inactive: -0.151 | inactive: 0.189
11 | IL10RB (UniProt Q08334) | inactive: 0.107 | inactive: -0.021 | inactive: -0.121 | inactive: -0.042 | inactive: -0.005 | inactive: 0.026 | inactive: 0.299 |  | inactive: -0.008 | inactive: 0.048 | inactive: 0.088 | inactive: 0.011 | inactive: 0.025 |  | inactive: 0.022 | inactive: -0.161 | inactive: 0.015 | inactive: -0.093 |  | 
12 | IP6K1 (UniProt Q92551) | inactive: -0.174 | inactive: -0.113 | inactive: 0.331 |  | inactive: 0.119 |  | inactive: 0.037 | inactive: 0.151 | inactive: -0.044 | active: 1.11 |  | inactive: 0.128 | inactive: 0.13 |  | inactive: -0.06 |  | inactive: -0.045 | inactive: 0.094 | inactive: 0.042 | inactive: 0.091
13 | INTS1 (UniProt Q8N201) | inactive: -0.098 | inactive: 0.504 | inactive: 0.023 |  | inactive: -0.101 |  | inactive: -0.318 |  |  |  | inactive: -0.054 |  | inactive: 0.232 |  | inactive: 0.153 |  | inactive: 0.093 | inactive: -0.124 | inactive: 0.086 | inactive: 0.093
14 | ILF3 isoform 7 (UniProt Q12906) | inactive: 0.001 | inactive: 0.087 | inactive: 0.03 | active: 0.554 | inactive: -0.003 | inactive: 0 | inactive: 0.213 | inactive: -0.047 | inactive: 0.095 | inactive: 0.174 | inactive: -0.022 | inactive: 0 | inactive: 0.018 |  | inactive: -0.044 | inactive: 0.022 | inactive: 0.202 | inactive: 0.032 | inactive: -0.061 | inactive: -0.06
15 | ITGB1BP1 (UniProt O14713) | inactive: -0.086 |  | inactive: 0.001 |  | inactive: -0.148 |  |  |  |  |  |  |  |  |  | inactive: 0.102 |  |  |  |  | 
16 | IL18R1 (UniProt Q13478) | inactive: 0.036 | inactive: -0.088 | inactive: 0.413 |  | inactive: -0.005 |  | inactive: -0.136 |  |  | inactive: 0.199 | inactive: 0.059 | inactive: -0.04 | inactive: 0.233 |  |  | inactive: -0.254 |  |  | inactive: 0.001 | inactive: 0.167
17 | IRF2 (UniProt P14316) |  | inactive: -0.097 | inactive: -0.092 | inactive: -0.149 |  | inactive: -0.004 | inactive: 0.003 | inactive: 0 | inactive: 0.162 | inactive: -0.17 | inactive: 0.015 | inactive: 0.188 | inactive: -0.231 | inactive: 0.111 | inactive: 0.1 | inactive: -0.009 |  |  | inactive: 0.089 | inactive: 0.039
18 | IL1RAP isoform 5 (UniProt Q9NPH3) | inactive: -0.108 |  |  | inactive: -0.092 | inactive: -0.051 | inactive: -0.253 |  | inactive: 0.003 | inactive: -0.507 | inactive: 0.12 |  | inactive: -0.057 | inactive: 0.007 | inactive: 0.144 | inactive: -0.075 |  | inactive: -0.186 | inactive: 0.139 |  | 
19 | IFI30 (UniProt P13284) | inactive: 0.224 | inactive: 0.063 | inactive: -0.02 | inactive: -0.048 | inactive: 0.144 | inactive: 0.042 | inactive: 0.061 | inactive: 0.06 | inactive: 0.027 | inactive: -0.133 | inactive: -0.035 | inactive: 0.147 | inactive: -0.02 |  | inactive: -0.028 | inactive: 0.04 | inactive: 0.006 | inactive: 0.009 | inactive: -0.11 | inactive: 0.01

From no. 7 to 8, copied from above:
Row | Target | log2 fold change (saracatinib) | log2 fold change (sotrastaurin) | log2 fold change [1] | log2 fold change (defactinib) | log2 fold change [2] | log2 fold change [3] | log2 fold change (filanesib) | log2 fold change (zotarolimus) | log2 fold change (idasanutlin) | log2 fold change [4] | log2 fold change (gefitinib) | log2 fold change (lapatinib) | log2 fold change (pictilisib) | log2 fold change (alvocidib) | log2 fold change (Tubastatin A) | log2 fold change [5] | log2 fold change (rucaparib) | log2 fold change (encorafenib) | log2 fold change (alisertib) | log2 fold change [6]
7 | IKZF1 (UniProt R9R4D9) | inactive: 0.019 |  |  |  | inactive: -0.038 |  |  | inactive: -0.192 |  | inactive: 0.084 |  | inactive: 0.037 | inactive: 0.059 |  | inactive: -0.158 | inactive: -0.167 |  |  |  | 
8 | IPO9 (UniProt Q96P70) | inactive: 0.036 | inactive: -0.13 | inactive: 0.034 | inactive: -0.106 | inactive: -0.136 | inactive: 0 | inactive: -0.005 | inactive: 0.052 | inactive: -0.089 | inactive: -0.054 | inactive: 0.088 | inactive: 0.011 | inactive: 0.031 |  | inactive: -0.02 | inactive: 0.014 | inactive: -0.051 | inactive: 0.056 | inactive: -0.016 | inactive: 0.065
